PubChem BioAssay AID504793, Drosophila RNAi Screening Center – 2011
In all, the deposit lists about 23,000 reagents; shown is an unselected part of those with a known target gene and a result. Of all reagents, 62 (0.27%) were called active. 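Calls come from follow-up tests whose scores are not deposited, so confirmed genes may have low counts here; counts are not normalised per plate.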 Raw values vary from plate to plate and are shown uncorrected. A number with no mark means an inactive call. A plus sign joins genes that one reagent is predicted to hit.

Aim: 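Whole-genome screen for parts of the DNA damage checkpoint at G2/M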 (primary screen)
System: Drosophila S2R+ cells
Knock-down reagent: long dsRNA against Drosophila genes, about 0.25 µg dsRNA per well
Time to read-out: 4 days of dsRNA, then 4 hours of drug before read-out
Conditions: doxorubicin 0.5 µM for 4 hours to cause double-strand breaks, in cells also given a low, harmless dose of dsRNA against nbs to sensitise the assay
Detection: 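Mitotic index as the number of phospho-histone H3-positive cells in each well following doxorubicin, given as raw counts without normalisation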
Direction: mitotic cells: higher = more cells in mitosis, weaker G2 arrest
Hit rule: 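a call needs confirmation in secondary tests, with other dsRNAs and a check of mitotic timing without damage, not just a high primary count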
Meaning of the calls: active = confirmed in follow-up tests; inactive = not confirmed

gene knocked down | DRSC id | mitotic cells, replicate 1
pyd (polychaetoid) | DRSC14387 | 4
pyd (polychaetoid) | DRSC14445 | 7
pyd (polychaetoid) | DRSC14509 | 4
pyd (polychaetoid) | DRSC16547 | 9
pyd (polychaetoid) | DRSC17041 | 5
pyd (polychaetoid) | DRSC23116 | 13
pyd (polychaetoid) | DRSC26890 | 7
Rdh1 (Retinol dehydrogenase 1) | DRSC06812 | 9
LPCAT (Lysophosphatidylcholine acyltransferase) | DRSC18157 | 8
LPCAT (Lysophosphatidylcholine acyltransferase) | DRSC18257 | 11
CG17287 | DRSC06659 | 12
CG5539 | DRSC04510 | 5
CG17196 | DRSC15189 | 7
Ptp10D (Protein tyrosine phosphatase 10D) | DRSC20272 | 14
Pfas (Phosphoribosylformylglycinamidine synthase) | DRSC03480 | 2
dpr3 (defective proboscis extension response 3) | DRSC00395 | 4
dpr3 (defective proboscis extension response 3) | DRSC00396 | 11
CG5196 | DRSC15735 | 8
CG5196 | DRSC26959 | 6
Tsp5D (Tetraspanin 5D) | DRSC18380 | 14
CG10514 | DRSC14249 | 11
CG10514 | DRSC28098 | 8
CG30049 | DRSC21345 | 10
CG30049 | DRSC26709 | 6
CG2924 | DRSC18525 | 2
CG2924 | DRSC28336 | 7
Sgs7 (Salivary gland secretion 7) | DRSC11281 | 6
Tmtc1 (Transmembrane O-mannosyltransferase targeting cadherins 1) | DRSC00151 | 5
CG7065 | DRSC18420 | 5
CG7065 | DRSC25280 | 3
Pcmt (Protein-L-isoaspartate (D-aspartate) O-methyltransferase) | DRSC12363 | 2
Srx (Sulfiredoxin) | DRSC20005 | 6
nonA (no on or off transient A) | DRSC20357 | 9
nonA (no on or off transient A) | DRSC27455 | 6
CG9541 | DRSC03257 | 1
Tmem18 (Transmembrane protein 18) | DRSC27312 | 4
RpL35 (Ribosomal protein L35) | DRSC18347 | 11
sinu (sinuous) | DRSC09752 | 4
CG33278 | DRSC10336 | 3
CG33278 | DRSC26564 | 9
CG14200 | DRSC19555 | 2
CG14200 | DRSC22979 | 34
CG14200 | DRSC25784 | 7
Naa80 (N(alpha)-acetyltransferase 80) | DRSC16429 | 5
Naa80 (N(alpha)-acetyltransferase 80) | DRSC28038 | 5
Ccdc56 + mtTFB1 | DRSC28766 | 3
Obp56a (Odorant-binding protein 56a) | DRSC06085 | 3
Obp56a (Odorant-binding protein 56a) | DRSC30070 | 1
CG3308 | DRSC15474 | 3
CG31140 | DRSC14603 | 7
CG31140 | DRSC15904 | 7
SNRPG (Small nuclear ribonucleoprotein G) | DRSC20207 | 9
ranshi | DRSC16564 | 5
ranshi | DRSC29605 | 4
SLIRP2 (SRA stem-loop interacting RNA binding protein 2) | DRSC16363 | 10
SLIRP2 (SRA stem-loop interacting RNA binding protein 2) | DRSC26237 | 3
Mst84Dc (Male-specific RNA 84Dc) | DRSC12599 | 6
CG14855 | DRSC14979 | 3
CG14855 | DRSC27350 | 12
Mnat9 (microtubule-associated Nat9) | DRSC14325 | 10
E(spl)m2-BFM (Enhancer of split m2, Bearded family member) | DRSC23082 | 20
CG9951 | DRSC11105 | 3
CG2811 | DRSC04318 | 6
CG5439 | DRSC02861 | 2
CG5439 | DRSC25932 | 9
CG4546 | DRSC15593 | 7
CG4546 | DRSC29584 | 8
CG31419 | DRSC15771 | 7
CG31419 | DRSC26294 | 6
CG10466 | DRSC02060 | 6
Oct-TyrR (Octopamine-Tyramine receptor) | DRSC11883 | 3
CG7407 | DRSC11824 | 7
Nnk (Nicknack) | DRSC15274 | 8
Nnk (Nicknack) | DRSC24564 | 7
Nepl9 (Neprilysin-like 9) | DRSC02255 | 6
ValRS (Valyl-tRNA synthetase) | DRSC06864 | 8
CG30273 | DRSC22059 | 9
CG30273 | DRSC25520 | 7
CG31639 | DRSC00910 | 9
CG31639 | DRSC28271 | 3
Ada2b (transcriptional Adaptor 2b) | DRSC16531 | 4
CG16756 | DRSC18115 | 12
Lcp65Ag3 (Larval cuticle protein) | DRSC10345 | 12
CG7458 | DRSC11829 | 11
CG7458 | DRSC21340 | 15
CG4293 | DRSC18557 | 11
Su(P) (Suppressor of ref(2)P sterility) | DRSC11291 | 3
Su(P) (Suppressor of ref(2)P sterility) | DRSC29947 | 8
CG8289 | DRSC20101 | 5
CG8289 | DRSC25677 | 8
Vps53 (Vacuolar protein sorting 53) | DRSC00595 | 4
sif (still life) | DRSC08759 | 7
sif (still life) | DRSC11395 | 4
sif (still life) | DRSC22065 | 10
sif (still life) | DRSC22828 | 3
sif (still life) | DRSC26730 | 9
His3.3A (Histone H3.3A) | DRSC03343 | 10
His3.3A (Histone H3.3A) | DRSC25053 | 6
Roc1b + Cdc5 | DRSC08687 | 7
Roc1b + Cdc5 | DRSC26879 | 4
CG15708 | DRSC06579 | 8
RPA3 (Replication protein A3) | DRSC19658 | 8
NP15.6 | DRSC16756 | 13
NP15.6 | DRSC26741 | 7
CG10265 | DRSC05986 | 7
CG10265 | DRSC21680 | 7
SP2353 | DRSC07545 | 2
SP2353 | DRSC23895 | 1
qkr58E-2 (quaking related 58E-2) | DRSC04710 | 4
qkr58E-2 (quaking related 58E-2) | DRSC25296 | 6

Targets above whose target name begins with V or v (2):
gene knocked down | DRSC id | mitotic cells, replicate 1
ValRS (Valyl-tRNA synthetase) | DRSC06864 | 8
Vps53 (Vacuolar protein sorting 53) | DRSC00595 | 4
